The test has as its target FLAG-HA-tagged KAP1 (human) (UniProt Q13263). Kind of test: affinity purification with mass spectrometry; two-step affinity purification (anti-FLAG agarose, FLAG peptide elution; then anti-HA agarose, HA peptide elution, native conditions) of FLAG-HA-KAP1 from Dignam nuclear extracts and benzonase-treated chromatin-soluble extracts of K562 cells; mock from K562 not expressing the construct; tandem MS.

Amino acid sequences for entries named in this document (tags omitted).
UniProt Q13263: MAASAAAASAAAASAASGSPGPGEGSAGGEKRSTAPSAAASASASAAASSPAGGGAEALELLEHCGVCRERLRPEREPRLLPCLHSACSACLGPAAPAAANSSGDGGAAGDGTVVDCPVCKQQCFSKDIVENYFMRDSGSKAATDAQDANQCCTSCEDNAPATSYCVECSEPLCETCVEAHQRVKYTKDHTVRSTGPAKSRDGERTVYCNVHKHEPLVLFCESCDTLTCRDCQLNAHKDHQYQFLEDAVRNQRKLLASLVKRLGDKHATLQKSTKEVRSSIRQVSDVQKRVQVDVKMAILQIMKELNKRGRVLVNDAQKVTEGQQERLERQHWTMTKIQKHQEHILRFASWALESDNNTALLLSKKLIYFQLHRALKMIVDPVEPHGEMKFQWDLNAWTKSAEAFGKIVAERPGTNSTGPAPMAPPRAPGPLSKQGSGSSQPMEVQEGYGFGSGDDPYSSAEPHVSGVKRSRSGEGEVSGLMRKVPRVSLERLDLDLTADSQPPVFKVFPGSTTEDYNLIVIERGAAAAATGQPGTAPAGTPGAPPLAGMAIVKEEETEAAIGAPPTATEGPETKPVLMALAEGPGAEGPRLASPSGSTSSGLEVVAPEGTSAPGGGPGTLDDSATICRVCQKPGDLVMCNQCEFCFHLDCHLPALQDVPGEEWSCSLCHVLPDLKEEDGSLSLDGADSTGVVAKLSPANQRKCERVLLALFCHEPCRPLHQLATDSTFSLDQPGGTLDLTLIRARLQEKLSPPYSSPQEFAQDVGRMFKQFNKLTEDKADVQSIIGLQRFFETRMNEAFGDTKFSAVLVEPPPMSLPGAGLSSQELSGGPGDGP
UniProt Q9NR30: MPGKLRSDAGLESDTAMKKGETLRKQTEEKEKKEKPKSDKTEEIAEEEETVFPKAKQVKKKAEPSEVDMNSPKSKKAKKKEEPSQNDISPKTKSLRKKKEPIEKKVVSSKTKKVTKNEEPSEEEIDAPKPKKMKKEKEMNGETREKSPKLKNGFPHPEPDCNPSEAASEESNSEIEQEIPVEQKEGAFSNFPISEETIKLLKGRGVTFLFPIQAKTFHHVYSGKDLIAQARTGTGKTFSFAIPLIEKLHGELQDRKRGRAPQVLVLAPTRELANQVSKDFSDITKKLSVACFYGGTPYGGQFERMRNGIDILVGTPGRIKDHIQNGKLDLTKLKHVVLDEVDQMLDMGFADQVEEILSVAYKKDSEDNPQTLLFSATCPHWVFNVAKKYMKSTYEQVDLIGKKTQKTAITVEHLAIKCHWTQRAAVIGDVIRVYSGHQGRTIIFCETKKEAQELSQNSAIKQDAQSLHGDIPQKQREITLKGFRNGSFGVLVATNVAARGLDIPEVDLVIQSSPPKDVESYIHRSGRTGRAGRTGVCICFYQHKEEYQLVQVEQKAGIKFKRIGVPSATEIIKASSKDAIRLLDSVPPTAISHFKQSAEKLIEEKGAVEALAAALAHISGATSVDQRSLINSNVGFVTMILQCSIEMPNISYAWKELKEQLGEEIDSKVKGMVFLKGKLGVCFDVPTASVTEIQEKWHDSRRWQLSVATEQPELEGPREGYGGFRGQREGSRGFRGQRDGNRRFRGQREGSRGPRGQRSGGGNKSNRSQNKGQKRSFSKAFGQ
UniProt Q16531: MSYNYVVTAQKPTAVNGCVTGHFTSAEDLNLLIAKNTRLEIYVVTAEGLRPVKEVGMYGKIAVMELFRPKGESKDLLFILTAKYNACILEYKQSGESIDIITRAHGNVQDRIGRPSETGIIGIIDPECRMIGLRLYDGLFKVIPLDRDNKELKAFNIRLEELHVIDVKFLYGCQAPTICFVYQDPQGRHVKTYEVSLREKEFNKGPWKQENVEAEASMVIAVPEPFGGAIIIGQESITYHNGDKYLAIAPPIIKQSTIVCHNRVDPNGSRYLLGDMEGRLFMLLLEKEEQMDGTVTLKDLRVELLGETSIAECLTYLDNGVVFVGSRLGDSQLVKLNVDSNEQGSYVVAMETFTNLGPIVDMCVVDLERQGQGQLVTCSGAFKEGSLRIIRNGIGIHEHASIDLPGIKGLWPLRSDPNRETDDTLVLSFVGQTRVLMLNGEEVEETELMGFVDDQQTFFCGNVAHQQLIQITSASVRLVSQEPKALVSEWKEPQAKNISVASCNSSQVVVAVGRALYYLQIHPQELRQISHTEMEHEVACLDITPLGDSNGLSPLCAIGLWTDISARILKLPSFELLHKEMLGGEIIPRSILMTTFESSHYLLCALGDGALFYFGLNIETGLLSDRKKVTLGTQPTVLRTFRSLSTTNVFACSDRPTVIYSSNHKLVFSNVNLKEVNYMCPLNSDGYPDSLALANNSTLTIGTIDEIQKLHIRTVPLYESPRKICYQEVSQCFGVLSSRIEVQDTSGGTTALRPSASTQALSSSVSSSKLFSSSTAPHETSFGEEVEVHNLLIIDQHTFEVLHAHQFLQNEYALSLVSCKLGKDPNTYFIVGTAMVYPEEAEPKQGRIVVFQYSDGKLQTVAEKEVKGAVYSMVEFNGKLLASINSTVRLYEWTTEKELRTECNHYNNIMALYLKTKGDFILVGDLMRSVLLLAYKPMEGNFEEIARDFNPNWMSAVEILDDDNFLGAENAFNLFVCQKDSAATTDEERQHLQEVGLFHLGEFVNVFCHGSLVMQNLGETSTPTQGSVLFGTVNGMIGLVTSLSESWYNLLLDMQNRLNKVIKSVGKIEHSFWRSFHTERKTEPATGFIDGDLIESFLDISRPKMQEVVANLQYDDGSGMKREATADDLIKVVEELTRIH
UniProt Q9Y265: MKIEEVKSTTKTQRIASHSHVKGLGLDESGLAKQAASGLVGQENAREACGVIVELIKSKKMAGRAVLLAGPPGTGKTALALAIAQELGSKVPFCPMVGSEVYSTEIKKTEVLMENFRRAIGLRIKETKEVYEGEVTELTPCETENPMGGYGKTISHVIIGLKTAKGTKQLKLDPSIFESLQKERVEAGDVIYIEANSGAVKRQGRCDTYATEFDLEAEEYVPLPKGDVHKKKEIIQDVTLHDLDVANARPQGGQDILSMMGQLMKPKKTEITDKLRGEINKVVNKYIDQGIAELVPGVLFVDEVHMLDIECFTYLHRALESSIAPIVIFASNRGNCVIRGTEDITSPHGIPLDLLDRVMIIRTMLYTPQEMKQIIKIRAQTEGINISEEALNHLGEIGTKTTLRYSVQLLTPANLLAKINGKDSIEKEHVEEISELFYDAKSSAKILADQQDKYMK
UniProt O60264: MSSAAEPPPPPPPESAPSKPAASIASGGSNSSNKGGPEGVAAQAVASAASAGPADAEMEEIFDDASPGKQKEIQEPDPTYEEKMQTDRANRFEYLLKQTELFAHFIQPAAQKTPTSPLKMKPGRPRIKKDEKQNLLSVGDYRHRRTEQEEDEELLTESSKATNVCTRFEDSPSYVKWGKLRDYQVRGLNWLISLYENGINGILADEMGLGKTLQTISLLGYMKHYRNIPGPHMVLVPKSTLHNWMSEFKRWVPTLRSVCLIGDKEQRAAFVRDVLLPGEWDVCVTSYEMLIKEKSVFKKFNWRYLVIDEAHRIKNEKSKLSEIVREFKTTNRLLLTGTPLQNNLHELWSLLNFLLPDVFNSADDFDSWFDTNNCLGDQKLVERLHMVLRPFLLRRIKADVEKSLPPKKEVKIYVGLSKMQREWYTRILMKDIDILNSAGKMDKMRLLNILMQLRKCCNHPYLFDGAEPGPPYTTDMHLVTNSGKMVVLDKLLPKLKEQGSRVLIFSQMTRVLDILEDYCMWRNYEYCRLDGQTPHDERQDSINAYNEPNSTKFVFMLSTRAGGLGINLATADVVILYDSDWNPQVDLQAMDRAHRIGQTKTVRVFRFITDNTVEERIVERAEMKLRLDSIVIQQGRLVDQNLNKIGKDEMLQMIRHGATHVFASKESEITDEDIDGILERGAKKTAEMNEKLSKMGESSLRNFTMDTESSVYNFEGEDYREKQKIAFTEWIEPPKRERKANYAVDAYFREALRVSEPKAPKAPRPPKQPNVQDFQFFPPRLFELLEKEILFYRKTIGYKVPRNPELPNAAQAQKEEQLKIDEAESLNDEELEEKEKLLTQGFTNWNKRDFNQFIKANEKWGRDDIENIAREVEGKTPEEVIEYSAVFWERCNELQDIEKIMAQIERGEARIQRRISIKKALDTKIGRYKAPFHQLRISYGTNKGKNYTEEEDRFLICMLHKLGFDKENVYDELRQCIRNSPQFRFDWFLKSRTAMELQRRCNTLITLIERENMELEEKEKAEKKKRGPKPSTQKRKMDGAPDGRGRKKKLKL

Results are given in words; binding and its absence hold for the method and conditions named. In cells and extracts the contact can be indirect. These calls come from enrichment with a bait or labelling near it, and not all partners need be listed.

Regarding DDX21 (from UniProt Q9NR30 1-783), the binding entry is listed as “binds”.

For the molecule “DNA-damage binding protein 1 (from UniProt Q16531 1-1140)”, the binding entry was “binds”.

In the case of “RuvB-like protein 1 (from UniProt Q9Y265 1-456)”, the binding result is reported as “binds”.

As to SMARCA5 (from UniProt O60264 1-1052), the binding result is reported as “binds”.

B1: RSF1 (protein, UniProt Q96T23 1-1441)
chain: MATAAAAAAVMAPPGCPGSCPNFAVVCSFLERYGPLLDLPELPFPELERVLQAPPPDVGNGEVPKELVELHLKLMRKIGKSVTADRWEKYLIKICQEFNSTWAWEMEKKGYLEMSVECKLALLKYLCECQFDDNLKFKNIINEEDADTMRLQPIGRDKDGLMYWYQLDQDHNVRMYIEEQDDQDGSSWKCIVRNRNELAETLALLKAQIDPVLLKNSSQQDNSSRESPSLEDEETKKEEETPKQEEQKESEKMKSEEQPMDLENRSTANVLEETTVKKEKEDEKELVKLPVIVKLEKPLPENEEKKIIKEESDSFKENVKPIKVEVKECRADPKDTKSSMEKPVAQEPERIEFGGNIKSSHEITEKSTEETEKLKNDQQAKIPLKKREIKLSDDFDSPVKGPLCKSVTPTKEFLKDEIKQEEETCKRISTITALGHEGKQLVNGEVSDERVAPNFKTEPIETKFYETKEESYSPSKDRNIITEGNGTESLNSVITSMKTGELEKETAPLRKDADSSISVLEIHSQKAQIEEPDPPEMETSLDSSEMAKDLSSKTALSSTESCTMKGEEKSPKTKKDKRPPILECLEKLEKSKKTFLDKDAQRLSPIPEEVPKSTLESEKPGSPEAAETSPPSNIIDHCEKLASEKEVVECQSTSTVGGQSVKKVDLETLKEDSEFTKVEMDNLDNAQTSGIEEPSETKGSMQKSKFKYKLVPEEETTASENTEITSERQKEGIKLTIRISSRKKKPDSPPKVLEPENKQEKTEKEEEKTNVGRTLRRSPRISRPTAKVAEIRDQKADKKRGEGEDEVEEESTALQKTDKKEILKKSEKDTNSKVSKVKPKGKVRWTGSRTRGRWKYSSNDESEGSGSEKSSAASEEEEEKESEEAILADDDEPCKKCGLPNHPELILLCDSCDSGYHTACLRPPLMIIPDGEWFCPPCQHKLLCEKLEEQLQDLDVALKKKERAERRKERLVYVGISIENIIPPQEPDFSEDQEEKKKDSKKSKANLLERRSTRTRKCISYRFDEFDEAIDEAIEDDIKEADGGGVGRGKDISTITGHRGKDISTILDEERKENKRPQRAAAARRKKRRRLNDLDSDSNLDEEESEDEFKISDGSQDEFVVSDENPDESEEDPPSNDDSDTDFCSRRLRRHPSRPMRQSRRLRRKTPKKKYSDDDEEEESEENSRDSESDFSDDFSDDFVETRRRRSRRNQKRQINYKEDSESDGSQKSLRRGKEIRRVHKRRLSSSESEESYLSKNSEDDELAKESKRSVRKRGRSTDEYSEADEEEEEEEGKPSRKRLHRIETDEEESCDNAHGDANQPARDSQPRVLPSEQESTKKPYRIESDEEEDFENVGKVGSPLDYSLVDLPSTNGQSPGKAIENLIGKPTEKSQTPKDNSTASASLASNGTSGGQEAGAPEEEEDELLRVTDLVDYVCNSEQL
As for B1, the binding result is recorded as “binds”.

The record behind these values is PMC7061982.
